# Results are given in words; binding and its absence hold for the method and conditions named. In cells and extracts the contact can be indirect. Some entries that bind do so weakly or less than the wild type.
# The chains behind the UniProt entries cited, without tags or fusion partners. Residues count along the entry.
# UniProt Q6QNK2, residues 26-874: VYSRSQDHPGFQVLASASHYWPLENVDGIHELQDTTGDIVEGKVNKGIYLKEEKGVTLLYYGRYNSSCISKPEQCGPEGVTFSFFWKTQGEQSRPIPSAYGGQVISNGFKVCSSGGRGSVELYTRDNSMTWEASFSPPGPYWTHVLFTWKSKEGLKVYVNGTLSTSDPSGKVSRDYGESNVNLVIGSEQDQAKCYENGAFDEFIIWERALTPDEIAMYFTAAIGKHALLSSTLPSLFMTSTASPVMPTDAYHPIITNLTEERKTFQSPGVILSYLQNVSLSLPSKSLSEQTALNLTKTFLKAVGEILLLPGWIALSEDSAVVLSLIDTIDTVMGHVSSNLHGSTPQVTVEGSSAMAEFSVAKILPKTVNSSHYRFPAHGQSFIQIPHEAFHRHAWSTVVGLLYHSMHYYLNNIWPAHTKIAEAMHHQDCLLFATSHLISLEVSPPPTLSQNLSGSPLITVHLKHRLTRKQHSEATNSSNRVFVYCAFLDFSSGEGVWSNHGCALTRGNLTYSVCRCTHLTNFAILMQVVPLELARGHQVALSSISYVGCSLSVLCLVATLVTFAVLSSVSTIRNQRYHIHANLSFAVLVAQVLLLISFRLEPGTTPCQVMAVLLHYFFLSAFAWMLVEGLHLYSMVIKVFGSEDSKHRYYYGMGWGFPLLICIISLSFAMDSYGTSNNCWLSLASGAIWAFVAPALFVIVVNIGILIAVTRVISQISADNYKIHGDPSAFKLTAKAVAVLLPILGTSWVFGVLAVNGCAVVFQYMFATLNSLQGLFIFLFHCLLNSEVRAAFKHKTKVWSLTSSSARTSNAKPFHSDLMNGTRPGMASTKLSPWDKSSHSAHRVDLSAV
# UniProt O88704: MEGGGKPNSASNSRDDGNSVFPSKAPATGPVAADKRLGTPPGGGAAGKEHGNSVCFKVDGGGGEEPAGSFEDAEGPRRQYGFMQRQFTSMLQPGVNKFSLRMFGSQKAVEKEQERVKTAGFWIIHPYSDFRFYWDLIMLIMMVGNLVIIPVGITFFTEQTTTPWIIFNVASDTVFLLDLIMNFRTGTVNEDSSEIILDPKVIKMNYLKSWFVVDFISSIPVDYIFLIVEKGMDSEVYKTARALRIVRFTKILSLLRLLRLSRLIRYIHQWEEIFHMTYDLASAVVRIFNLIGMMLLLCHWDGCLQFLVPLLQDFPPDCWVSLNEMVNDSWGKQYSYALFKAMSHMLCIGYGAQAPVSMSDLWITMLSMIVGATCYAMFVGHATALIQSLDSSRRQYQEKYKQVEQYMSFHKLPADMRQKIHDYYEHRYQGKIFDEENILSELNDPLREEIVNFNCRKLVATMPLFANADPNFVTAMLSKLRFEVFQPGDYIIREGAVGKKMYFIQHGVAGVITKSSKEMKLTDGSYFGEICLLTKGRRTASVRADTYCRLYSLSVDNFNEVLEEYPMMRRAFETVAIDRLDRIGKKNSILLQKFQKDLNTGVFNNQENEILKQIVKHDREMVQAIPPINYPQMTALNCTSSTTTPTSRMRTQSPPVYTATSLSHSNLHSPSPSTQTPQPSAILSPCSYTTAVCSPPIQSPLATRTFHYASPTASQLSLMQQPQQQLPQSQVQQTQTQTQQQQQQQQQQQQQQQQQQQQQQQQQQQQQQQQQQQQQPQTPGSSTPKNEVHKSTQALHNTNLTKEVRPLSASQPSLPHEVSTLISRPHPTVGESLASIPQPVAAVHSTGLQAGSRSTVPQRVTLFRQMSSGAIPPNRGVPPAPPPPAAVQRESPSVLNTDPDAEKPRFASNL
# UniProt E1AZ71: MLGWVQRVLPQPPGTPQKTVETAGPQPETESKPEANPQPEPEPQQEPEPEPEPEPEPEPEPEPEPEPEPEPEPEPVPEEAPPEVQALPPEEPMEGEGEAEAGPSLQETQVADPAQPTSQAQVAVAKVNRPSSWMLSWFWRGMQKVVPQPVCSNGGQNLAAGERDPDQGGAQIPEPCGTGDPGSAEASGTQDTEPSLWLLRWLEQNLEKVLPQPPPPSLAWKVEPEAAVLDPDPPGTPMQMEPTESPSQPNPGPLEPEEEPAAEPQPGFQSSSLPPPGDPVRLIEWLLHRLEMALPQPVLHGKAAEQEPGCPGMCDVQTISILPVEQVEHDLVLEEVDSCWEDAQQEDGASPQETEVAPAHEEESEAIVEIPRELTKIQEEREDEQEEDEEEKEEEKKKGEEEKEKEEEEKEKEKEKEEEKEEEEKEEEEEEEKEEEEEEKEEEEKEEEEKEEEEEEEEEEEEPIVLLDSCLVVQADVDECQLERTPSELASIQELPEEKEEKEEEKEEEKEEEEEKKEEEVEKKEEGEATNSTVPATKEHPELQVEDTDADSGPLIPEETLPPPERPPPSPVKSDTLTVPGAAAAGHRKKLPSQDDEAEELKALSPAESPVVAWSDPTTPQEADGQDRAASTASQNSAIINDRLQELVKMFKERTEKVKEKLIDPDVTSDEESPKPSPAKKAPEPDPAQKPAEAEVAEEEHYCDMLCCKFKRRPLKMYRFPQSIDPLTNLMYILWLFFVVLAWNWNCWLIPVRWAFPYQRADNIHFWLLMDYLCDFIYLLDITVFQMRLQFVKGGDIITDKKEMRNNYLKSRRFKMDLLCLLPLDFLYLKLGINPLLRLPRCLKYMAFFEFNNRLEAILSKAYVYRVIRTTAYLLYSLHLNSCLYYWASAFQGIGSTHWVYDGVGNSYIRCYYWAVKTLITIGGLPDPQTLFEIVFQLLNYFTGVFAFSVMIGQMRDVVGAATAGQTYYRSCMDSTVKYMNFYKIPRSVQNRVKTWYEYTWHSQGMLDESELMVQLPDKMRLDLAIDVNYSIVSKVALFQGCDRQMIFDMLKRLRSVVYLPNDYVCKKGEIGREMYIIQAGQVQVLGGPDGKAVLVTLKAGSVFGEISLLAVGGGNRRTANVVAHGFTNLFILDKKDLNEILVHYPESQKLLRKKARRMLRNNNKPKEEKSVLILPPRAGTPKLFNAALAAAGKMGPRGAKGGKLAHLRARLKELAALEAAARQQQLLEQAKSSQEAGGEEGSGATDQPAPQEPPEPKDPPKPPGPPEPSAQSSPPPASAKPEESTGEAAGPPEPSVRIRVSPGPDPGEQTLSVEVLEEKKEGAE
# T1: GPR133 (mouse (endogenous in utricle)) (UniProt Q80T32)
# T1 sequence: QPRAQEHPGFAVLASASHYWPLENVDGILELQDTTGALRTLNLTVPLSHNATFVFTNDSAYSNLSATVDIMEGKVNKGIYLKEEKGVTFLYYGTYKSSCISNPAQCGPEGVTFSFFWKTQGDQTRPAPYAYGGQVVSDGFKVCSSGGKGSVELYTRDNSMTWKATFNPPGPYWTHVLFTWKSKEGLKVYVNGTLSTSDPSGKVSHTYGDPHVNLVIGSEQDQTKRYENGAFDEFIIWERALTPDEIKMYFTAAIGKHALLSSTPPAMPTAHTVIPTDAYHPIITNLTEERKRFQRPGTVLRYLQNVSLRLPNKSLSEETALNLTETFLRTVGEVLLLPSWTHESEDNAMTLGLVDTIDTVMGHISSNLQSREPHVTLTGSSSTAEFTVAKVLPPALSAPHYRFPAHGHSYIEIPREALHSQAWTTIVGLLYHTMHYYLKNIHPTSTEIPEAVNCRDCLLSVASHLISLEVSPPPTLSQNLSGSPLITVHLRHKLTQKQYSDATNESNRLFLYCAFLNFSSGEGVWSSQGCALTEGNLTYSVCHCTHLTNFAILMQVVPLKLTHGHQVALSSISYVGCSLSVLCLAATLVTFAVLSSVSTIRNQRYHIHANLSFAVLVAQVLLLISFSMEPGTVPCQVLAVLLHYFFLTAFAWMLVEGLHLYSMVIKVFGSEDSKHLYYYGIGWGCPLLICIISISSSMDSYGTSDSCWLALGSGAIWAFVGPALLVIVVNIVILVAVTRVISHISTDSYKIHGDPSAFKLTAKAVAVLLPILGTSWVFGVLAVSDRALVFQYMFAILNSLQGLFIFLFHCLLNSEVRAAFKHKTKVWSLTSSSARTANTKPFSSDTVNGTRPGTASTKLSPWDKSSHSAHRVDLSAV
# Target: GPR133 (WT full-length GPR133, overexpressed in HEK293 cells) (UniProt Q6QNK2)
# Test: co-IP
row,Molecule,binding
1,HCN1 (in HEK293 cells) (from UniProt O88704 1-910),no binding
2,"CNGA3 (in HEK293 cells) (protein, UniProt Q9JJZ8 1-631) MAKVNTQCSQPSPTQLSIKNADRDLDHVENGLGRVSRLIISIRAWASRHLHDEDQTPDSFLDRFHGSELKEVSTRESNAQPNPGEQKPPDGGEGRKEEPIVVDPSSNIYYRWLTAIALPVFYNWCLLVCRACFDELQSEHLTLWLVLDYSADVLYVLDMLVRARTGFLEQGLMVRDTKRLWKHYTKTLHFKLDILSLIPTDLAYLKLGVNYPELRFNRLLKFSRLFEFFDRTETRTNYPNVFRIGNLVLYTLIIIHWNACIYFAISKFIGFGTDSWVYPNTSKPEYARLSRKYIYSLYWSTLTLTTIGETPPPVKDEEYLFVVIDFLVGILIFATIVGNVGSMISNMNAPRVEFQAKIDSVKQYMQFRKVTKDLETRVIRWFDYLWANRKTVDEKEVLKNLPDKLKAEIAINVHLDTLKKVRIFQDCEAGLLVELVLKLRPTVFSPGDYICKKGDIGREMYIIKEGKLAVVADDGVTQFVVLSDGSYFGEISILNIKGSKSGNRRTANIRSIGYSDLFCLSKDDLMEALTEYPDAKRALEEKGRQILMKDNLIDEDLVAARVDTRDVEEKVEYLESSLDILQTRFARLLAEYSASQMKLKQRLTRLESQMNRRCCGFSPDRENSEDASKTD",binds
3,"HCN4 (in HEK293 cells) (protein, UniProt O70507 1-1201) MDKLPPSMRKRLYSLPQQVGAKAWIMDEEEDGEEEGAGGRQDPSRRSIRLRPLPSPSPSVAAGCSESRGAALGATESEGPGRSAGKSSTNGDCRRFRGSLASLGSRGGGSGGAGGGSSLGHLHDSAEERRLIAAEGDASPGEDRTPPGLATEPERPATAAQPAASPPPQQPPQPASASCEQPSADTAIKVEGGAAASDQILPEAEVRLGQSGFMQRQFGAMLQPGVNKFSLRMFGSQKAVEREQERVKSAGFWIIHPYSDFRFYWDLTMLLLMVGNLIIIPVGITFFKDENTTPWIVFNVVSDTFFLIDLVLNFRTGIVVEDNTEIILDPQRIKMKYLKSWFVVDFISSIPVDYIFLIVETRIDSEVYKTARALRIVRFTKILSLLRLLRLSRLIRYIHQWEEIFHMTYDLASAVVRIVNLIGMMLLLCHWDGCLQFLVPMLQDFPHDCWVSINGMVNNSWGKQYSYALFKAMSHMLCIGYGRQAPVGMSDVWLTMLSMIVGATCYAMFIGHATALIQSLDSSRRQYQEKYKQVEQYMSFHKLPPDTRQRIHDYYEHRYQGKMFDEESILGELSEPLREEIINFNCRKLVASMPLFANADPNFVTSMLTKLRFEVFQPGDYIIREGTIGKKMYFIQHGVVSVLTKGNKETKLADGSYFGEICLLTRGRRTASVRADTYCRLYSLSVDNFNEVLEEYPMMRRAFETVALDRLDRIGKKNSILLHKVQHDLNSGVFNYQENEIIQQIVRHDREMAHCAHRVQAAASATPTPTPVIWTPLIQAPLQAAAATTSVAIALTHHPRLPAAIFRPPPGPGLGNLGAGQTPRHPRRLQSLIPSALGSASPASSPSQVDTPSSSSFHIQQLAGFSAPPGLSPLLPSSSSSPPPGACGSPPAPTPSTSTAAAASTTGFGHFHKALGGSLSSSDSPLLTPLQPGARSPQAAQPPPPLPGARGGLGLLEHFLPPPPSSRSPSSSPGQLGQPPGELSLGLAAGPSSTPETPPRPERPSFMAGASGGASPVAFTPRGGLSPPGHSPGPPRTFPSAPPRASGSHGSLLLPPASSPPPPQVPQRRGTPPLTPGRLTQDLKLISASQPALPQDGAQTLRRASPHSSGESVAAFSLYPRAGGGSGSSGGLGPPGRPYGAIPGQHVTLPRKTSSGSLPPPLSLFGARAASSGGPPLTTAAPQREPGARSEPVRSKLPSNL",no binding
4,"CNGA1 (in HEK293 cells) (protein, UniProt P29974 1-684) MKTNIINTWHSFVNIPNVIVPAIEKEIRRMENGACSSFSDDDNGSLSEESENEDSFFRSNSYKRRGPSQREQHLPGTMALFNVNNSSNKDQEPKEKKKKKKEKKSKADDKNENKKDPEKKKKKEKEKEKKKKEEKTKEKKEEEKKEVVVIDPSGNTYYNWLFCITLPVMYNWTMIIARACFDELQSDYLEYWLIFDYVSDVVYLADMFVRTRTGYLEQGLLVKDRMKLIEKYKANLQFKLDVLSVIPTDLLYIKFGWNYPEIRLNRLLRISRMFEFFQRTETRTNYPNIFRISNLVMYIVIIIHWNACVYYSISKAIGFGNDTWVYPDVNDPEFGRLARKYVYSLYWSTLTLTTIGETPPPVLDSEYIFVVVDFLIGVLIFATIVGNIGSMISNMNAARAEFQSRVDAIKQYMNFRNVSKDMEKRVIKWFDYLWTNKKTVDEREVLRYLPDKLRAEIAINVHLDTLKKVRIFADCEAGLLVELVLKLQPQVYSPGDYICKKGDIGREMYIIKEGKLAVVADDGITQFVVLSDGSYFGEISILNIKGSKAGNRRTANIKSIGYSDLFCLSKDDLMEALTEYPDAKTMLEEKGRQILMKDGLLDINIANMGSDPKDLEEKVTRMEGSVDLLQTRFARILAEYESMQQKLKQRLTKVEKFLKPLIETEFSALEEPGGESELTESLQD",no binding

# Target: T1, GPR133 (mouse (endogenous in utricle))
# Test: co-IP
row,Molecule,binding
1,CNGB1 (from UniProt E1AZ71 1-1325),no binding
2,HCN1 (from UniProt O88704 1-910),no binding
3,"CNGA3 (protein, UniProt Q9JJZ8 1-631) MAKVNTQCSQPSPTQLSIKNADRDLDHVENGLGRVSRLIISIRAWASRHLHDEDQTPDSFLDRFHGSELKEVSTRESNAQPNPGEQKPPDGGEGRKEEPIVVDPSSNIYYRWLTAIALPVFYNWCLLVCRACFDELQSEHLTLWLVLDYSADVLYVLDMLVRARTGFLEQGLMVRDTKRLWKHYTKTLHFKLDILSLIPTDLAYLKLGVNYPELRFNRLLKFSRLFEFFDRTETRTNYPNVFRIGNLVLYTLIIIHWNACIYFAISKFIGFGTDSWVYPNTSKPEYARLSRKYIYSLYWSTLTLTTIGETPPPVKDEEYLFVVIDFLVGILIFATIVGNVGSMISNMNAPRVEFQAKIDSVKQYMQFRKVTKDLETRVIRWFDYLWANRKTVDEKEVLKNLPDKLKAEIAINVHLDTLKKVRIFQDCEAGLLVELVLKLRPTVFSPGDYICKKGDIGREMYIIKEGKLAVVADDGVTQFVVLSDGSYFGEISILNIKGSKSGNRRTANIRSIGYSDLFCLSKDDLMEALTEYPDAKRALEEKGRQILMKDNLIDEDLVAARVDTRDVEEKVEYLESSLDILQTRFARLLAEYSASQMKLKQRLTRLESQMNRRCCGFSPDRENSEDASKTD",binds
4,"HCN4 (protein, UniProt O70507 1-1201) MDKLPPSMRKRLYSLPQQVGAKAWIMDEEEDGEEEGAGGRQDPSRRSIRLRPLPSPSPSVAAGCSESRGAALGATESEGPGRSAGKSSTNGDCRRFRGSLASLGSRGGGSGGAGGGSSLGHLHDSAEERRLIAAEGDASPGEDRTPPGLATEPERPATAAQPAASPPPQQPPQPASASCEQPSADTAIKVEGGAAASDQILPEAEVRLGQSGFMQRQFGAMLQPGVNKFSLRMFGSQKAVEREQERVKSAGFWIIHPYSDFRFYWDLTMLLLMVGNLIIIPVGITFFKDENTTPWIVFNVVSDTFFLIDLVLNFRTGIVVEDNTEIILDPQRIKMKYLKSWFVVDFISSIPVDYIFLIVETRIDSEVYKTARALRIVRFTKILSLLRLLRLSRLIRYIHQWEEIFHMTYDLASAVVRIVNLIGMMLLLCHWDGCLQFLVPMLQDFPHDCWVSINGMVNNSWGKQYSYALFKAMSHMLCIGYGRQAPVGMSDVWLTMLSMIVGATCYAMFIGHATALIQSLDSSRRQYQEKYKQVEQYMSFHKLPPDTRQRIHDYYEHRYQGKMFDEESILGELSEPLREEIINFNCRKLVASMPLFANADPNFVTSMLTKLRFEVFQPGDYIIREGTIGKKMYFIQHGVVSVLTKGNKETKLADGSYFGEICLLTRGRRTASVRADTYCRLYSLSVDNFNEVLEEYPMMRRAFETVALDRLDRIGKKNSILLHKVQHDLNSGVFNYQENEIIQQIVRHDREMAHCAHRVQAAASATPTPTPVIWTPLIQAPLQAAAATTSVAIALTHHPRLPAAIFRPPPGPGLGNLGAGQTPRHPRRLQSLIPSALGSASPASSPSQVDTPSSSSFHIQQLAGFSAPPGLSPLLPSSSSSPPPGACGSPPAPTPSTSTAAAASTTGFGHFHKALGGSLSSSDSPLLTPLQPGARSPQAAQPPPPLPGARGGLGLLEHFLPPPPSSRSPSSSPGQLGQPPGELSLGLAAGPSSTPETPPRPERPSFMAGASGGASPVAFTPRGGLSPPGHSPGPPRTFPSAPPRASGSHGSLLLPPASSPPPPQVPQRRGTPPLTPGRLTQDLKLISASQPALPQDGAQTLRRASPHSSGESVAAFSLYPRAGGGSGSSGGLGPPGRPYGAIPGQHVTLPRKTSSGSLPPPLSLFGARAASSGGPPLTTAAPQREPGARSEPVRSKLPSNL",no binding
5,"CNGA1 (protein, UniProt P29974 1-684) MKTNIINTWHSFVNIPNVIVPAIEKEIRRMENGACSSFSDDDNGSLSEESENEDSFFRSNSYKRRGPSQREQHLPGTMALFNVNNSSNKDQEPKEKKKKKKEKKSKADDKNENKKDPEKKKKKEKEKEKKKKEEKTKEKKEEEKKEVVVIDPSGNTYYNWLFCITLPVMYNWTMIIARACFDELQSDYLEYWLIFDYVSDVVYLADMFVRTRTGYLEQGLLVKDRMKLIEKYKANLQFKLDVLSVIPTDLLYIKFGWNYPEIRLNRLLRISRMFEFFQRTETRTNYPNIFRISNLVMYIVIIIHWNACVYYSISKAIGFGNDTWVYPDVNDPEFGRLARKYVYSLYWSTLTLTTIGETPPPVLDSEYIFVVVDFLIGVLIFATIVGNIGSMISNMNAARAEFQSRVDAIKQYMNFRNVSKDMEKRVIKWFDYLWTNKKTVDEREVLRYLPDKLRAEIAINVHLDTLKKVRIFADCEAGLLVELVLKLQPQVYSPGDYICKKGDIGREMYIIKEGKLAVVADDGITQFVVLSDGSYFGEISILNIKGSKAGNRRTANIKSIGYSDLFCLSKDDLMEALTEYPDAKTMLEEKGRQILMKDGLLDINIANMGSDPKDLEEKVTRMEGSVDLLQTRFARILAEYESMQQKLKQRLTKVEKFLKPLIETEFSALEEPGGESELTESLQD",no binding

# Source: doi:10.1101/2023.10.24.563882
